Results taken from patent publication US12083202B2, “Lipophilic cosmetic compositions containing pelargonic acid esters” (Novamont S.p.A., priority 2015, dated 2024).
No dose or concentration is given here for some results.

Experiment: Sensory evaluation of the pigment dispersions on the forearm
Type: in vivo
Conditions: Black Iron Oxide dispersion on the forearm, scale from 1 (low) to 5 (high)

Compound | Film evennes | Writing capability/color intensity
CCCCCCCCC(=O)OCC(COC(=O)CCCCCCCC)OC(=O)CCCCCCCC [Glycerol tripelargonate] | 4 | 4
CC(C)CCCCCCOC(=O)CCCCCC(C)C [Isononyl Isononanoate, reference compound] | 2 | 2
CCCCCCCCC(=O)OCC(C)(C)COC(=O)CCCCCCCC [Neopentyl glycol dipelargonate] | 4 | 3
CCCCCCCCC(=O)OCC(COC(=O)CCCCCCCC)(COC(=O)CCCCCCCC)COC(=O)CCCCCCCC [Pentaerythritol tetrapelargonate] | 4 | 4
